Reference: paper PMC5359460
Results are given in words; binding and its absence hold for the method and conditions named. Binding seen in cells or lysates may run through a third protein. Binding can be weak; no strength is given.

Experiments:
[1] = biological target: T1, Syntaxin-2 (mouse (endogenous in cortical synaptosomes)) (UniProt Q00262); experiment: co-IP; immunoprecipitation of Syntaxin-1, Syntaxin-2 or Snap25 from purified cortical synaptosomal lysates of adult mice (500 ug of total lysate); JNK detected by western blotting
T1 sequence: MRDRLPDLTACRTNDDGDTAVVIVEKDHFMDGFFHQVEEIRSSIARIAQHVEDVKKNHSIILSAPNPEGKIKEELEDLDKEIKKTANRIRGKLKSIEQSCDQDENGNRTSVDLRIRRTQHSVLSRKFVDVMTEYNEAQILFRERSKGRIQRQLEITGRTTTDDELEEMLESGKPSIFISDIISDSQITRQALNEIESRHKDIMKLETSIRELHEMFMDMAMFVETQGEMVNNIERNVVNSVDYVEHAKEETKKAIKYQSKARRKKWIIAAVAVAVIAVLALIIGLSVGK

[2] = biological target: c-Jun N-terminal kinase (mouse (endogenous in cortical synaptosomes)); experiment: co-IP; reverse immunoprecipitation of JNK (anti-JNK) from purified cortical synaptosomal lysates of adult mice (500 ug of total lysate); Syntaxin-1, Syntaxin-2 and Snap25 detected by western blotting

## c-Jun N-terminal kinase (enzyme)
[1]
  binding: binds

B1: Syntaxin-2 (protein, UniProt Q00262 1-289)
chain: T1 sequence
[2]
  binding: binds
